The list shows a part of the results. Many values rest on one well or one pass, so single values are uncertain.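 The apoptosis fraction was the count of cleaved-PARP antibody-stained nuclei relative to all DNA-stained nuclei, imaged in 1,536-well plates. Screening doses were set so most cells survived, and baseline and induced cleaved-PARP levels vary greatly across cell lines.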
Assays:
Assay in all cases: cleaved PARP positive nuclei fraction relative to DMSO control; melanoma cells; higher = more apoptosis
Settings in all cases: library dose: low library concentration; 72 h
501Mel = test system: 501Mel
A101D = test system: A101D
A2058 = test system: A2058
A375 = test system: A375
C32 = test system: C32
CBRC008 = test system: CBRC008 (line from a melanoma biopsy)
CBRC013 = test system: CBRC013 (line from a melanoma biopsy)
CBRC014 = test system: CBRC014 (line from a melanoma biopsy)
CBRC016 = test system: CBRC016 (line from a melanoma biopsy)
CBRC017 = test system: CBRC017 (line from a melanoma biopsy)
COLO792 = test system: COLO792
COLO800 = test system: COLO800
COLO829 = test system: COLO829
G361 = test system: G361
IPC-298 = test system: IPC-298
IST-MEL1 = test system: IST-MEL1
LB2518-MEL = test system: LB2518-MEL
LOXIMVI = test system: LOXIMVI
MEL-HO = test system: MEL-HO

| Structure (SMILES) | cleaved PARP positive nuclei fraction (501Mel) | cleaved PARP positive nuclei fraction (A101D) | cleaved PARP positive nuclei fraction (A2058) | cleaved PARP positive nuclei fraction (A375) | cleaved PARP positive nuclei fraction (C32) | cleaved PARP positive nuclei fraction (CBRC008) | cleaved PARP positive nuclei fraction (CBRC013) | cleaved PARP positive nuclei fraction (CBRC014) | cleaved PARP positive nuclei fraction (CBRC016) | cleaved PARP positive nuclei fraction (CBRC017) | cleaved PARP positive nuclei fraction (COLO792) | cleaved PARP positive nuclei fraction (COLO800) | cleaved PARP positive nuclei fraction (COLO829) | cleaved PARP positive nuclei fraction (G361) | cleaved PARP positive nuclei fraction (IPC-298) | cleaved PARP positive nuclei fraction (IST-MEL1) | cleaved PARP positive nuclei fraction (LB2518-MEL) | cleaved PARP positive nuclei fraction (LOXIMVI) | cleaved PARP positive nuclei fraction (MEL-HO) |
| --- | --- | --- | --- | --- | --- | --- | --- | --- | --- | --- | --- | --- | --- | --- | --- | --- | --- | --- | --- |
| CS(=O)(=O)c1ccc(C(=O)Nc2ccc(Cl)c(-c3ccccn3)c2)c(Cl)c1 [vismodegib] + CN(C)S(=O)(=O)c1ccc2c(c1)/C(=C/c1cc3c([nH]1)CCCC3)C(=O)N2 [SU6656] (first compound 1 µM, partner dose 0.4 µM) | 118% | 73.9% | 219% | 53.7% | 163% | 124% | 215% | 109% | 116% | 121% | 50.1% | 124% | 44% | 93.7% | 118% | 69.5% | 143% | 90.7% | 202% |
| CS(=O)(=O)c1ccc(C(=O)Nc2ccc(Cl)c(-c3ccccn3)c2)c(Cl)c1 [vismodegib] + O=C(O)c1ccc(-c2c[nH]c3ncc(-c4ccccc4)cc23)cc1C1CCCC1 [GSK650394] (first compound 1 µM, partner dose 0.16 µM) | 105% | 145% | 139% | 193% | 66.1% | 264% | 96.4% | 121% | 212% | 221% | 93.1% | 104% | 36.6% | 69.3% | 23% | 138% | 75.8% | 355% | 133% |
| CC(=O)O[C@@]12CO[C@@H]1C[C@H](O)[C@@]1(C)C(=O)[C@H](O)C3=C(C)[C@@H](OC(=O)[C@H](O)[C@@H](NC(=O)OC(C)(C)C)c4ccccc4)C[C@@](O)([C@@H](OC(=O)c4ccccc4)[C@H]21)C3(C)C [Docetaxel] + C[C@@H]1CCN(C(=O)CC#N)C[C@@H]1N(C)c1ncnc2[nH]ccc12 [CP690550] (first compound 0.0001 µM, partner dose 1 µM) | 221% | 111% | 6680% | 4540% | 452% | 182% | 54.5% | 164% | 313% | 190% | 369% | 550% | 158% | 1080% | 198% | 111% | 191% | 60.5% | 83.3% |
| Cn1sc(=O)n(Cc2ccccc2)c1=O + CO[C@@H]1[C@H](N(C)C(=O)c2ccccc2)C[C@H]2O[C@]1(C)n1c3ccccc3c3c4c(c5c6ccccc6n2c5c31)C(=O)NC4 [Midostaurin] (first compound 0.4 µM, partner dose 0.08 µM) | 85.1% | 88.8% | 142% | 187% | 106% | 145% | 177% | 110% | 110% | 81.7% | 234% | 43.2% | 112% | 204% | 71.6% | 72.1% | 92.8% | 81.8% | 196% |
| C[C@]1(O)C[C@@H](c2nc(-c3ccc4ccc(-c5ccccc5)nc4c3)c3c(N)nccn32)C1 + COc1cc(Nc2ncc(F)c(Nc3ccc4c(n3)NC(=O)C(C)(C)O4)n2)cc(OC)c1OC [Tamatinib] (first compound 0.4 µM, partner dose 0.4 µM) | 596% | 199% | 164% | 675% | 152% | 192% | 210% | 106% | 34.5% | 114% | 349% | 359% | 39.5% | 142% | 452% | 126% | 486% | 66.7% | 156% |
| CC(=O)O[C@@]12CO[C@@H]1C[C@H](O)[C@@]1(C)C(=O)[C@H](O)C3=C(C)[C@@H](OC(=O)[C@H](O)[C@@H](NC(=O)OC(C)(C)C)c4ccccc4)C[C@@](O)([C@@H](OC(=O)c4ccccc4)[C@H]21)C3(C)C [Docetaxel] + O=C(O)c1ccc(-c2c[nH]c3ncc(-c4ccccc4)cc23)cc1C1CCCC1 [GSK650394] (first compound 0.0001 µM, partner dose 0.16 µM) | 112% | 83.3% | 4750% | 5490% | 221% | 595% | 128% | 121% | 256% | 213% | 541% | 500% | 375% | 689% | 132% | 292% | 301% | 93.4% | 135% |
| CN(c1ncccc1CNc1nc(Nc2ccc3c(c2)CC(=O)N3)ncc1C(F)(F)F)S(C)(=O)=O + CC1(C)NC(=O)N(c2ccc([N+](=O)[O-])c(C(F)(F)F)c2)C1=O [nilutamide] (first compound 0.08 µM, partner dose 1 µM) | 102% | 85.9% | 56.7% | 74.3% | 26.9% | 126% | 120% | 83.3% | 99% | 77.5% | 79.9% | 49.6% | 94.4% | 129% | 61.7% | 61.8% | 95.1% | 104% | 30.1% |
| CC(=O)O[C@@]12CO[C@@H]1C[C@H](O)[C@@]1(C)C(=O)[C@H](O)C3=C(C)[C@@H](OC(=O)[C@H](O)[C@@H](NC(=O)OC(C)(C)C)c4ccccc4)C[C@@](O)([C@@H](OC(=O)c4ccccc4)[C@H]21)C3(C)C [Docetaxel] + COc1cc2c(Oc3ccc4[nH]c(C)cc4c3F)ncnc2cc1OCCCN1CCCC1 [cediranib] (first compound 0.0001 µM, partner dose 0.4 µM) | 346% | 125% | 7360% | 15400% | 503% | 902% | 121% | 98.2% | 368% | 116% | 735% | 128% | 175% | 805% | 31.9% | 133% | 301% | 253% | 112% |
| CCCCCCCCc1ccc(CCC(N)(CO)CO)cc1 [fingolimod] + O=C(O)c1ccc(-c2c[nH]c3ncc(-c4ccccc4)cc23)cc1C1CCCC1 [GSK650394] (first compound 2 µM, partner dose 0.16 µM) | 183% | 90.3% | 117% | 217% | 114% | 159% | 70.9% | 94.2% | 119% | 158% | 58.1% | 104% | 111% | 114% | 139% | 60.6% | 92.8% | 42.7% | 104% |
| CCCCCCCCc1ccc(CCC(N)(CO)CO)cc1 [fingolimod] + CC1(C)NC(=O)N(c2ccc([N+](=O)[O-])c(C(F)(F)F)c2)C1=O [nilutamide] (first compound 2 µM, partner dose 1 µM) | 136% | 140% | 56.2% | 242% | 114% | 82.4% | 118% | 88.1% | 61.6% | 90.2% | 122% | 198% | 67.2% | 124% | 85.6% | 60.6% | 81.5% | 35.7% | 76.5% |
| Cn1sc(=O)n(Cc2ccccc2)c1=O + COc1cc(Nc2ncc(F)c(Nc3ccc4c(n3)NC(=O)C(C)(C)O4)n2)cc(OC)c1OC [Tamatinib] (first compound 0.4 µM, partner dose 0.4 µM) | 74.5% | 100% | 138% | 247% | 117% | 194% | 107% | 74.5% | 100% | 75.3% | 274% | 124% | 89.8% | 119% | 235% | 188% | 375% | 62.7% | 107% |
| Cn1cnc2c(F)c(Nc3ccc(Br)cc3Cl)c(C(=O)NOCCO)cc21 [selumetinib] + C=CCn1c(=O)c2cnc(Nc3ccc(N4CCN(C)CC4)cc3)nc2n1-c1cccc(C(C)(C)O)n1 [MK1775] (first compound 0.015 µM, partner dose 0.02 µM) | 125% | 98.6% | 123% | 50.3% | 100% | 120% | 106% | 85.4% | 112% | 116% | 124% | 74.2% | 102% | 108% | 131% | 102% | 583% | 80.5% | 47.3% |
| CCCCCCCCc1ccc(CCC(N)(CO)CO)cc1 [fingolimod] + NCC(=O)Nc1ccc(-n2nc(C(F)(F)F)cc2-c2ccc3c(ccc4ccccc43)c2)cc1 [OSU03012] (first compound 2 µM, partner dose 1 µM) | 292% | 60.5% | 141% | 10300% | 137% | 181% | 245% | 164% | 104% | 103% | 97% | 265% | 34% | 94.4% | 62.8% | 296% | 45.2% | 30.6% | 53% |
| NC(=O)c1ccc(N(C(N)=O)c2c(F)cccc2F)nc1-c1ccc(F)cc1F + Cn1cncc1[C@@](N)(c1ccc(Cl)cc1)c1ccc2c(c1)c(-c1cccc(Cl)c1)cc(=O)n2C [tipifarnib] (first compound 0.4 µM, partner dose 0.01 µM) | 97.6% | 84.4% | 67% | 113% | 163% | 55.3% | 128% | 94% | 132% | 114% | 228% | 93.8% | 103% | 58.9% | 46.7% | 102% | 368% | 51.2% | 73.9% |
| Cn1cnc2c(F)c(Nc3ccc(Br)cc3Cl)c(C(=O)NOCCO)cc21 [selumetinib] + Cc1ccc(NC(=O)c2cccc(N(C)C)c2)cc1NC(=O)c1ccc(O)cc1 [ZM336372] (first compound 0.015 µM, partner dose 2 µM) | 212% | 127% | 50.8% | 72.8% | 106% | 317% | 107% | 94.4% | 80.9% | 64.3% | 68.2% | 190% | 30.6% | 146% | 117% | 131% | 93.5% | 57.4% | 58.7% |
| NC1(c2ccc(-c3nc4ccn5c(=O)[nH]nc5c4cc3-c3ccccc3)cc2)CCC1 + OCCn1cc(-c2cnc3nnn(Cc4ccc5ncccc5c4)c3n2)cn1 [PF04217903] (first compound 0.4 µM, partner dose 1 µM) | 93.3% | 86.6% | 112% | 135% | 192% | 175% | 111% | 82.7% | 60.1% | 102% | 91.2% | 85.9% | 61.4% | 62% | 61.5% | 268% | 290% | 63.1% | 38.5% |
| C[C@@H](N)c1ccc(C(=O)Nc2ccnc3[nH]ccc23)cc1 + CN(C)S(=O)(=O)c1ccc2c(c1)/C(=C/c1cc3c([nH]1)CCCC3)C(=O)N2 [SU6656] (first compound 0.4 µM, partner dose 0.4 µM) | 84.8% | 114% | 75.1% | 153% | 230% | 204% | 100% | 78.3% | 109% | 93.1% | 126% | 47.2% | 136% | 72.2% | 61.4% | 54.8% | 25.8% | 56% | 165% |

2 entries from above, bar-delimited.
Structure (SMILES) | cleaved PARP positive nuclei fraction (501Mel) | cleaved PARP positive nuclei fraction (A101D) | cleaved PARP positive nuclei fraction (A2058) | cleaved PARP positive nuclei fraction (A375) | cleaved PARP positive nuclei fraction (C32) | cleaved PARP positive nuclei fraction (CBRC008) | cleaved PARP positive nuclei fraction (CBRC013) | cleaved PARP positive nuclei fraction (CBRC014) | cleaved PARP positive nuclei fraction (CBRC016) | cleaved PARP positive nuclei fraction (CBRC017) | cleaved PARP positive nuclei fraction (COLO792) | cleaved PARP positive nuclei fraction (COLO800) | cleaved PARP positive nuclei fraction (COLO829) | cleaved PARP positive nuclei fraction (G361) | cleaved PARP positive nuclei fraction (IPC-298) | cleaved PARP positive nuclei fraction (IST-MEL1) | cleaved PARP positive nuclei fraction (LB2518-MEL) | cleaved PARP positive nuclei fraction (LOXIMVI) | cleaved PARP positive nuclei fraction (MEL-HO)
CCCCCCCCc1ccc(CCC(N)(CO)CO)cc1 [fingolimod] + NCC(=O)Nc1ccc(-n2nc(C(F)(F)F)cc2-c2ccc3c(ccc4ccccc43)c2)cc1 [OSU03012] (first compound 2 µM, partner dose 1 µM) | 292% | 60.5% | 141% | 10300% | 137% | 181% | 245% | 164% | 104% | 103% | 97% | 265% | 34% | 94.4% | 62.8% | 296% | 45.2% | 30.6% | 53%
NC1(c2ccc(-c3nc4ccn5c(=O)[nH]nc5c4cc3-c3ccccc3)cc2)CCC1 + OCCn1cc(-c2cnc3nnn(Cc4ccc5ncccc5c4)c3n2)cn1 [PF04217903] (first compound 0.4 µM, partner dose 1 µM) | 93.3% | 86.6% | 112% | 135% | 192% | 175% | 111% | 82.7% | 60.1% | 102% | 91.2% | 85.9% | 61.4% | 62% | 61.5% | 268% | 290% | 63.1% | 38.5%

Source: the supplement of paper PMC4604168 (melanoma cell lines)
